Experimental data: patent US20110123534A1
These are yes or no findings as the source states them, for the method shown. In cells and extracts the contact can be indirect. Some binding calls cover weakened binding; strength is not graded here.

Chains of the proteins cited; added tags and fusions are not shown. Residues count along the entry.
UniProt P60953, residues 1-188: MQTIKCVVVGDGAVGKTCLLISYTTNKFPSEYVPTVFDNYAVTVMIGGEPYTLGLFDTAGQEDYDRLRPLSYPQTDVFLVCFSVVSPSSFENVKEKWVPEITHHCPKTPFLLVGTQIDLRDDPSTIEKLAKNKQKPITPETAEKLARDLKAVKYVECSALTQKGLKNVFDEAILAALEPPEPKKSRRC
UniProt Q6ZNL6: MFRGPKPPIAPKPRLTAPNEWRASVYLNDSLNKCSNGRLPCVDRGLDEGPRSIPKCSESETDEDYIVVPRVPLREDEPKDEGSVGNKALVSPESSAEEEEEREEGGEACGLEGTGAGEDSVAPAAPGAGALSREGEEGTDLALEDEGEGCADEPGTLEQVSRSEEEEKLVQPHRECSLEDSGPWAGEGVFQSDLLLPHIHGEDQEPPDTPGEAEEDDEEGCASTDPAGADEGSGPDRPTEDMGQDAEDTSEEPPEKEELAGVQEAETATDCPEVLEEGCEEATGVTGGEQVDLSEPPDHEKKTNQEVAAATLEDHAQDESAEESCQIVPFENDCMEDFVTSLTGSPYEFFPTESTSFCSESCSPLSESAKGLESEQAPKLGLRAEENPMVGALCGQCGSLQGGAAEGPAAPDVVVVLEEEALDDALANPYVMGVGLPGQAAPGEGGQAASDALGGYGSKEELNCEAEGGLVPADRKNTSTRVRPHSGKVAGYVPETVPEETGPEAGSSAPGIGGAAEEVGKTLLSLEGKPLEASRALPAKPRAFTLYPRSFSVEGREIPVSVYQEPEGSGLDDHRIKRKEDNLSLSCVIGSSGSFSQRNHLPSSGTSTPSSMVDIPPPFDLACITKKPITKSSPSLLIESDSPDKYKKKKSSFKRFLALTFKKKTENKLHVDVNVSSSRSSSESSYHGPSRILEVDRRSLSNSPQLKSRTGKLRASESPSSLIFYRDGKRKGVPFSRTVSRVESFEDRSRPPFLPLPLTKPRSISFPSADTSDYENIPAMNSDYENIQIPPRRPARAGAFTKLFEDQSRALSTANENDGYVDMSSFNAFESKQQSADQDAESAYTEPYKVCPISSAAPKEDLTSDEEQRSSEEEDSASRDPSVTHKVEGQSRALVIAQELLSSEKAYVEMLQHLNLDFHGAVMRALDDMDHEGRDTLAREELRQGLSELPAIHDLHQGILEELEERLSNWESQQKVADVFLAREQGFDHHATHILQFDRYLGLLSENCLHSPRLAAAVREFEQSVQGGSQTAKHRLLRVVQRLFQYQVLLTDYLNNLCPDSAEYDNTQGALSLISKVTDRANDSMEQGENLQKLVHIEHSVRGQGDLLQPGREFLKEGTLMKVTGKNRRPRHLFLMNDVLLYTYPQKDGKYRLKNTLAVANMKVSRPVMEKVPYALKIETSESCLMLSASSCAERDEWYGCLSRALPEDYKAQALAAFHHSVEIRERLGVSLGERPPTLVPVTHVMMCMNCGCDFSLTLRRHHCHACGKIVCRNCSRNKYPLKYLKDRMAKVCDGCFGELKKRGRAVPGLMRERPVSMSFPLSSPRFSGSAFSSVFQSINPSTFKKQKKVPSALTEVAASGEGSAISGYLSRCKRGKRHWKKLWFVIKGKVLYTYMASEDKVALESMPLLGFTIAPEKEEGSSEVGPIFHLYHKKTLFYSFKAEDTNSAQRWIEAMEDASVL

Target: cdc42 (endogenous in HUVEC lysate) (human) (UniProt P60953)
Assay: co-immunoprecipitation with anti-FGD5 antibody from lysates of FGD5 overexpressing HUVECs, western blot

FYVE, RhoGEF and PH domain-containing 5 (FGD5), human, overexpressed in HUVECs by adenovirus (Ad-FGD5) (from UniProt Q6ZNL6 1-1462)
binding: binds
